Source: PubChem BioAssay AID1347076 (National Center for Advancing Translational Sciences (NCATS), 2019)
Out of some 400,000 compounds screened, about 13,000 (3.2%) were called active. The shares of active, inactive and inconclusive entries below differ from those in the screen. Calls follow the shape of the dose curve; as a rule, active = well fitted cell-killing curve with a large enough effect; inconclusive = small, poorly fitted or top-dose-only effect, or effect the other way; inactive = flat fitted curve, though single readings scatter. A potency beside an inconclusive call is a rough fit, not a confirmed value.

assay: qHTS assay for MDR1-selective chemotherapeutics: Primary screen using the drug-selected MDR subline cells KB-V1; conditions: KB-V1 MDR cells viability, CellTiter-Glo, 72 h; series mostly up to 46.1 µM; also: nearly all actives have a fitted effect of over 60% in size
Method in brief: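 Cytotoxicity toward P-gp-expressing KB-V1 cells was determined as loss of CellTiter-Glo luminescence after 72 h at 37 degrees C. Compounds were tested in quantitative HTS format across a concentration range, with curves fitted to normalized data.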
Potency is read from the fitted curve at half-maximal effect.

Row | SMILES | Potency
1 | CCCNC(=O)Nc1ccc2c(c1)N(C)C(=O)c1ccccc1S2 | active: 20.6 µM
2 | CCOC(=O)N1CCN(S(=O)(=O)c2ccc3c(c2)SCC(=O)N3)CC1 | inactive
3 | O=C(Nc1nccs1)c1cc2c(s1)CCCCC2 | inconclusive: 18.4 µM [cytotoxic, single point]
4 | O=C(Nc1ccccc1F)c1oc2ccccc2c1NC(=O)C1CC1 | inconclusive: 25.9 µM [rising, single point]
5 | Cc1cc(Nc2cnc3ccccc3n2)n(-c2ccccc2)n1 | inconclusive: 6.51 µM [cytotoxic, partial curve]
6 | CC(=O)c1c(C)[nH]c(C(=O)Nc2cccc(C#N)c2)c1C | inactive
7 | COCc1ccc(C(=O)NC2CCCc3c2cnn3-c2cc(C)cc(C)c2)s1 (stereo not given) | inconclusive: 16.4 µM [cytotoxic, partial curve]
8 | CC(=O)N1CC[n+]2c(-c3ccc(Cl)cc3)csc21 | inactive
9 | COc1cc(CN2C(=O)C(CCc3ccccc3)ON=C2c2cnccn2)cc(OC)c1 (stereo not given) | inconclusive: 16.4 µM [cytotoxic, partial curve]
10 | COc1ccc(C#Cc2ccc3c(c2)O[C@H](CN(C)C(C)=O)[C@H](C)CN([C@@H](C)CO)S3(=O)=O)cc1 | inconclusive: 13 µM [cytotoxic, partial curve, poor fit]
11 | CCCCCCC(=O)N1C/C=C\C(c2ccc(OC)cc2)N(Cc2ccc(F)cc2)C(=O)[C@H]1Cc1ccccc1 (stereo not given in full) | inconclusive: 10.3 µM [cytotoxic, single point]
12 | O=C(CN1CCN(c2cccc(C(F)(F)F)c2)CC1)NCc1ccccc1 | inconclusive: 18.4 µM [cytotoxic, single point]
13 | Cc1ccc(NC(=O)CSc2nn(-c3ccccc3)c(=S)s2)cc1S(=O)(=O)N(C)C | active: 6.51 µM
14 | CCN(CC)C(=O)c1sc2nc(-c3ccncc3)[nH]c(=O)c2c1C | inactive
15 | O=C(CCN1CCN(Cc2ccccc2)CC1)Nc1cccc(Cl)c1 | active: 23.1 µM
16 | CC(C)c1ccc(CC(=O)N2CCC2(C)C(=O)Nc2ccccc2)cc1 (stereo not given) | inactive
17 | COc1ccc(C2OC(=O)CC2C(=O)NC2CCCC(C)C2C)cc1OC (stereo not given) | inconclusive: 18.4 µM [cytotoxic, partial curve]
18 | O=C(Nc1cccc(Cl)c1)c1ccc2nc(Cc3ccccc3)oc2c1 | inconclusive: 20.6 µM [cytotoxic, single point]
19 | CCC1(CC)CNC(=O)NC1 | inconclusive: 2.59 µM [rising, partial curve, poor fit]
20 | OCc1cnc(SCc2cccc(F)c2)n1Cc1ccc(F)cc1 | inactive

Retrieved one by one from above, two records:
Row | SMILES | Potency
4 | O=C(Nc1ccccc1F)c1oc2ccccc2c1NC(=O)C1CC1 | inconclusive: 25.9 µM [rising, single point]
15 | O=C(CCN1CCN(Cc2ccccc2)CC1)Nc1cccc(Cl)c1 | active: 23.1 µM
